In PMC2699478:
These are yes or no findings as the source states them, for the method shown. Binding seen in cells or lysates may run through a third protein. A result given as binding can be weak or reduced; the word gives no strength.

Sequences of proteins named here, by UniProt entry; tags and fusion partners are left off. A change or cut given only in a name is not applied to a line headed by its entry.
UniProt Q01196: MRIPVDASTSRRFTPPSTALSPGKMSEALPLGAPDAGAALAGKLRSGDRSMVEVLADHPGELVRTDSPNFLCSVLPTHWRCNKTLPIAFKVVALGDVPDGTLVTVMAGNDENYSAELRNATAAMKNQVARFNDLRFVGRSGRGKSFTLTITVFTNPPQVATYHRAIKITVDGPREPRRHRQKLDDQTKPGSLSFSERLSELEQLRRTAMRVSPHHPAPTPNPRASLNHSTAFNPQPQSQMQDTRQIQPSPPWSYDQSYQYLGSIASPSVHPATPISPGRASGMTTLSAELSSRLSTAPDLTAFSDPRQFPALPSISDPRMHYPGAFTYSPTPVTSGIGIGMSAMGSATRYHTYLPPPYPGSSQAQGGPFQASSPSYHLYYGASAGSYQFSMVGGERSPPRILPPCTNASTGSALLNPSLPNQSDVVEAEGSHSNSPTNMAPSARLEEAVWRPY
UniProt Q9BZS1: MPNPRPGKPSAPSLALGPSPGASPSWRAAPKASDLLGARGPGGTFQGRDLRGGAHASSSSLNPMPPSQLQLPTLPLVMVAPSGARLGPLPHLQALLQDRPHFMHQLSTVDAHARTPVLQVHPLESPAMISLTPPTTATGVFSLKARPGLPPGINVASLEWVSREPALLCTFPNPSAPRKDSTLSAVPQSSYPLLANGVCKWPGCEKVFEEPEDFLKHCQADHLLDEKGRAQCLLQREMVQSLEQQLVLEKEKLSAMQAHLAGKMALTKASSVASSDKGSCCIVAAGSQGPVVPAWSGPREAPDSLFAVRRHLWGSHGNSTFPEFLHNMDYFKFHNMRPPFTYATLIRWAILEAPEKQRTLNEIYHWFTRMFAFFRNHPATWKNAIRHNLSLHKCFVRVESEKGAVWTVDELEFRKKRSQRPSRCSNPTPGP

Biological target: FLAG-tagged RUNX1 (UniProt Q01196)
Assay: co-IP; HEK293T cells co-transfected with a FLAG-tagged and a non-tagged protein; lysis after 3 days in 150 mM NaCl, 50 mM Tris-HCl pH 7,5, 1% Nonidet P-40, 0,5% sodium deoxycholate; α-FLAG M2 affinity gel 2 h at 4°C, 6 washes; immunoblot with α-FOXP3 eBio7979

FOXP3Δ2Δ7 (from UniProt Q9BZS1)
binding: binds
